From patent publication US4826975A, “Fused cycloaliphatic aminoalcohols” (Maggioni-Winthrop S.P.A., priority 1986, dated 1989)
For at least one compound, name, drawing or mass did not settle the structure.

Test system: Normolipemic rats
Test: hypolipemic activity in normolipemic rats (serum lipids, liver weight)
Type: in vivo, rat
Conditions: oral, 4 days
Method: Total cholesterol (CHOL), triglycerides (TG), HDL cholesterol CHOL-HDL) were assayed in serum and the liver was weighed.

Question: How did the “effect on TG and CHOL-HDL (in words)” value turn out when COc1cc2c(cc1OC)[C@H](O)[C@@H](N1CCC(n3c(=O)[nH]c4cc(Cl)ccc43)CC1)C2 (relative stereo) [MG 38131, trans-2-[4-(2-Oxo-5-chloro-1-benzimidazolinyl)-1-piperidinyl]-5,6-dimethoxy-1-indanol] was run?
Answer: Its value is “decrease TG and increase CHOL-HDL”.
